In article PMC11736009:
These are yes or no findings as the source states them, for the method shown. For some assays here: In cells and extracts the contact can be indirect. Some entries that bind do so weakly or less than the wild type.

Protein sequences, listed by entry. Tags and fused reporters are not part of them. Lines headed by an entry give the natural chain unless they say otherwise; changes in a name come on top.
UniProt Q9Z207: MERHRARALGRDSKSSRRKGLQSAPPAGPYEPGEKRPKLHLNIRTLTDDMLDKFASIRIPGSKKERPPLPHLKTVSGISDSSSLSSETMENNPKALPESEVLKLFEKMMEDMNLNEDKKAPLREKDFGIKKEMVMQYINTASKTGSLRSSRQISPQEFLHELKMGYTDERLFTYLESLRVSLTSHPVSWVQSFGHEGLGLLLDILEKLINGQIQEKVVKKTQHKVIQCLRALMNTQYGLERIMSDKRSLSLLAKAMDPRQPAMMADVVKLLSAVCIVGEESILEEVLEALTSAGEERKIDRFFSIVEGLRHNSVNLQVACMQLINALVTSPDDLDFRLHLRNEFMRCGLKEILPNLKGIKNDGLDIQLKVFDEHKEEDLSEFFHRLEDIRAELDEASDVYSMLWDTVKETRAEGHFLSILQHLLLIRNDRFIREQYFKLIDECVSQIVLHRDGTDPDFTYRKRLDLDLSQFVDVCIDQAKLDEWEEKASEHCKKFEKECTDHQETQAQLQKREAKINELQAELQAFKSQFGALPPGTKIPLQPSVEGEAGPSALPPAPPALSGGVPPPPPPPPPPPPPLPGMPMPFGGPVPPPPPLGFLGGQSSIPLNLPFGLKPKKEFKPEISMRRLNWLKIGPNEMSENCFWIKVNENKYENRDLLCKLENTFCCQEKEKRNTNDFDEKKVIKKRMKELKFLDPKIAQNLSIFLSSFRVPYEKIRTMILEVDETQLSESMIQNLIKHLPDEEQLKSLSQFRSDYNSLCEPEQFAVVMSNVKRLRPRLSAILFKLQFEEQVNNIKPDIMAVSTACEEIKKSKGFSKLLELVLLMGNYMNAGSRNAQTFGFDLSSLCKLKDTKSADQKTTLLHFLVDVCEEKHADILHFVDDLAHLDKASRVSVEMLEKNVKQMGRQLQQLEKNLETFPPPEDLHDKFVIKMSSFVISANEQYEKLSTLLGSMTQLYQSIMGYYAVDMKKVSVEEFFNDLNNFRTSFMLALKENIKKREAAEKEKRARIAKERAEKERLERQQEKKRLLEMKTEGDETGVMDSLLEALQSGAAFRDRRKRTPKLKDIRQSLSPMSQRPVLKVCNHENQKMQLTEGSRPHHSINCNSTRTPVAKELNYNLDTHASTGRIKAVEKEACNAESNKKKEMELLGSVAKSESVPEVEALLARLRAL
UniProt Q91W96: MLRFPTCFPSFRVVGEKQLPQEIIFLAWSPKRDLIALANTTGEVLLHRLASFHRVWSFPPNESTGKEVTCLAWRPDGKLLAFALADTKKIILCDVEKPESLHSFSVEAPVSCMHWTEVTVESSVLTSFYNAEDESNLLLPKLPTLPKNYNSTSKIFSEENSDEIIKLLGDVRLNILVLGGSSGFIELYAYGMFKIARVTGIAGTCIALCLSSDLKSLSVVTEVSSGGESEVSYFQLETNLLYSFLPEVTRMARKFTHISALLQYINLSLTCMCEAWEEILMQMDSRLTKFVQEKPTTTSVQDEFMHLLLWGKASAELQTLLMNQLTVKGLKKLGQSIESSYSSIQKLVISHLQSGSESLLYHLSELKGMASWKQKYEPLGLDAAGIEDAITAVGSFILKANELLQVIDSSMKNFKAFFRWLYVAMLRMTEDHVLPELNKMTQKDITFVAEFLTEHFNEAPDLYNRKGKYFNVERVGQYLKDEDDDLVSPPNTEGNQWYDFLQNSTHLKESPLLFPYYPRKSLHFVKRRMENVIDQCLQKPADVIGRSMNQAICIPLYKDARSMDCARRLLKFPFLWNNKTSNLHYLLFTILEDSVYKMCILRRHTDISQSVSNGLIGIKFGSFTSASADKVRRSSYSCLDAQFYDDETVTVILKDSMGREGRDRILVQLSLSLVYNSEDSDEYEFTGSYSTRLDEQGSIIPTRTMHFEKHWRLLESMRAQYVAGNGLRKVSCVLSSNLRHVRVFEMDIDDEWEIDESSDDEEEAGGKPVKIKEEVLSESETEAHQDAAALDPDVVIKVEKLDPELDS
UniProt Q9WUD1: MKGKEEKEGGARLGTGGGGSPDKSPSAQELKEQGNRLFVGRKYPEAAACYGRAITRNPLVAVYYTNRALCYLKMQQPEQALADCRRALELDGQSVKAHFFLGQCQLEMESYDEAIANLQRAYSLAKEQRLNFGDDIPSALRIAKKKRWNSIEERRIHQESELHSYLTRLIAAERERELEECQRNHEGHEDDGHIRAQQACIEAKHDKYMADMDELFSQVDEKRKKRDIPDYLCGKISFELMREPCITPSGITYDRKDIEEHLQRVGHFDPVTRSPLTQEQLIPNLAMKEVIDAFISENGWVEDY

Tests used:
[1] = biological target: full-length Diaph3-M1041A-Flag (mouse) (UniProt Q9Z207); test: co-IP; HEK293T cells cotransfected, harvested 48 h later; lysate incubated with Flag beads at 4 °C overnight, washed 3 to 4 times with lysis buffer; Western blot
[2] = biological target: full-length WT Diaph3-Flag (mouse) (UniProt Q9Z207); test: as above
[3] = biological target: full-length WT Diaph3-Flag (mouse) (UniProt Q9Z207); test: native gel or EMSA; nondenaturing PAGE of lysates of transfected cells, without SDS and mercaptoethanol, at 0 to 4 °C; Western blot

| binding [1] | binding [2] | binding [3] | Substance |
| --- | --- | --- | --- |
| binds | binds | – | Anapc4 (overexpressed) (from UniProt Q91W96 1-807) |
| binds | binds | – | Stub1 (overexpressed) (from UniProt Q9WUD1 1-304) (enzyme) |
| – | – | binds | full-length WT Diaph3-Flag (from UniProt Q9Z207 1-1171) |
